Test results taken from patent US8691944.
No constants are given. Whether binding was seen depends on the method and setting. Some results given as binding are weak or reduced against the parent protein; the word gives no strength.

Protein sequences, listed by entry. Tags and fused reporters are not part of them. Residues count along the entry.
UniProt P01137, residues 279-390: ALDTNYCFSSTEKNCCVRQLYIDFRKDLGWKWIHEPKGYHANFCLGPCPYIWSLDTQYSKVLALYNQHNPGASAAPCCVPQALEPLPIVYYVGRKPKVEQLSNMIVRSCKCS
UniProt P09038, residues 143-288: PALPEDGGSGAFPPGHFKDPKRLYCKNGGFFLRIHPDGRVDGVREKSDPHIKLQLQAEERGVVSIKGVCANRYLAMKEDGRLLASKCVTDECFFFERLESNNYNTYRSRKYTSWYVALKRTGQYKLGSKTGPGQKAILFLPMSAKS
UniProt P01127, residues 82-190: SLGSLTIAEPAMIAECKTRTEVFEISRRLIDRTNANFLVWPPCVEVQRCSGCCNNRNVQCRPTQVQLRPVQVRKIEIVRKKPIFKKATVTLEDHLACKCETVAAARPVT

What was measured:
Assay in all cases: peptide binding assay
[1] = biological target: transforming growth factor-β1 (TGF-β1) (UniProt P01137)
[2] = biological target: basic fibroblast growth factor (bFGF, FGF-2) (UniProt P09038)
[3] = biological target: platelet-derived growth factor-BB (PDGF-BB) (UniProt P01127)

| binding [1] | binding [2] | binding [3] | Binder |
| --- | --- | --- | --- |
| binds | binds | binds | QPSVGQQMIFEEHGFRRTTPPTTAT [peptide 4 (…)] |
| binds | binds | binds | QLISIQQYGHQEVTRFDFTTTSTST [peptide 2 (…)] |
| binds | binds | binds | QPSHISKYILRWRPKNSVGRWKEAT [peptide 1 (…)] |
| binds | binds | binds | NGQTPIQRTIKPDVRSYTITGLQPGT [peptide 3 (…)] |
